Drawing on publication PMC11193246, this text covers binding for one molecule.

Amino acid sequences for entries named in this document (tags omitted).
UniProt Q14790: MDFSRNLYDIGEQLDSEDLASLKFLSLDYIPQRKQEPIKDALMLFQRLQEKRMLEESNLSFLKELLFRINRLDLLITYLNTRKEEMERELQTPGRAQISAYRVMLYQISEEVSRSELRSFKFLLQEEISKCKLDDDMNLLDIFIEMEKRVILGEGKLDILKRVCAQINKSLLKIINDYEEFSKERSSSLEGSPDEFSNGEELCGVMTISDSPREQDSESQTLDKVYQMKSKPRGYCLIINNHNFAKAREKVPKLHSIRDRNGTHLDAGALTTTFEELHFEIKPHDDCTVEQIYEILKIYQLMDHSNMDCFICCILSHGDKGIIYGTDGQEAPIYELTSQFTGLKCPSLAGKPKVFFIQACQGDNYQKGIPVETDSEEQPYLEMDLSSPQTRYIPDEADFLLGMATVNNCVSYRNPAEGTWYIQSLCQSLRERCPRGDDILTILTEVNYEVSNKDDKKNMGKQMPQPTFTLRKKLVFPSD

For this test, the target named is caspase-8 (human (endogenous in OCI-AML3)) (UniProt Q14790). Briefly: co-IP; endogenous proteins in OCI-AML3 cell lysate (IP lysis buffer); protein A/G beads with the indicated primary antibodies or isotype IgG at 4 °C overnight; washed three times with PBS-T; Western blot. On the technique in general: A western blot detects proteins with antibodies after separation by electrophoresis.

No constants are given. Whether binding was seen depends on the method and setting. Binding seen in cells or lysates may run through a third protein. Some entries that bind do so weakly or less than the wild type.

B1: tumor protein p53 inducible nuclear protein 2 (protein, UniProt Q8IXH6 1-220)
chain: MFQRLSSLFFSTPSPPEDPDCPRAFVSEEDEVDGWLIIDLPDSYAAPPSPGAAPAPAGRPPPAPSLMDESWFVTPPACFTAEGPGLGPARLQSSPLEDLLIEHPSMSVYVTGSTIVLEPGSPSPLPDAALPDGDLSEGELTPARREPRAARHAAPLPARAALLEKAGQVRRLQRARQRAERHALSAKAVQRQNRARESRPRRSKNQSSFIYQPCQRQFNY
On to B1, for which the binding entry is “binds”.
